The text below walks through data of patent WO2013084504A1.

Chains of the proteins cited; added tags and fusions are not shown. Lines headed by an entry give the natural chain unless they say otherwise; changes in a name come on top.
UniProt O75787: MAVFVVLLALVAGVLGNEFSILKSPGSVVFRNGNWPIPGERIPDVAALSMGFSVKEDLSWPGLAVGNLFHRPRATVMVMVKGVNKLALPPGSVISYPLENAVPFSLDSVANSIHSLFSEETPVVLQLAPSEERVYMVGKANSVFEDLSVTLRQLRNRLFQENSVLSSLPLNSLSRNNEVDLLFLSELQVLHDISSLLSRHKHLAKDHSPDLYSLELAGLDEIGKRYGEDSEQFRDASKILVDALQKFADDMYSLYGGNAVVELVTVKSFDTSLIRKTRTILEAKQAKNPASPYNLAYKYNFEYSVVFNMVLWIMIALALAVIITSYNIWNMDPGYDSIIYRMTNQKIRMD

No constants are given. Whether binding was seen depends on the method and setting. A result given as binding can be weak or reduced; the word gives no strength.

In test [1] the target is human soluble (pro)renin receptor, s(P)RR (human) (UniProt O75787). In words: immunoprecipitation from transfectant supernatant with protein G Sepharose, Western blot with 93A1B. (In general: Immunoblotting shows a protein as a band on a membrane.)
The target is the same in test [2]. In words: immunoprecipitation and immunoblot with 93A1B (FIG. 1C legend).
The target is the same in test [3]. In words: sandwich ELISA, PoAb-148 coated as capture, HRP-93A1B Fab' as detection. For orientation: In an ELISA, binding on a coated surface is turned into a signal by an enzyme label.
The target of test [4] is silkworm-derived recombinant human (P)RR-His tag protein (human). In words: sandwich ELISA of recombinant (P)RR added to plasma, serum or medium (recovery test).

B1: monoclonal antibody 93A1B produced by hybridoma Human pRR Hybridoma 93A1B (FERM BP-11510) (antibody, V domains shown)
VH: EVKLVESGGGLVQPGGSLRLSCATSGFTFSDFYMEWVRQPPGKRLEWIAASRNKANDYTTEYSASVKGRFIVSRDTSQSILYLQMNALRAEDTAIYYCARDNWDGGFAYWGQGTLVTVSA
VL: DIVMSQSPSSLAVSVGEKVTMSCKSSQSLLYSRNQKNYLAWYQQKPGQSPKLLIYWASTRESGVPDRFTGSGSGTDFTLTISSVKAEDLAVYYCQQYYSYPHMFGGGTKLEIK
For the molecule B1, the binding entry in test [1] and in test [2] was “binds” throughout.

B2: horseradish peroxidase (HRP)-conjugated 93A1B mouse IgG Fab' (Fab, V domains shown)
VH: EVKLVESGGGLVQPGGSLRLSCATSGFTFSDFYMEWVRQPPGKRLEWIAASRNKANDYTTEYSASVKGRFIVSRDTSQSILYLQMNALRAEDTAIYYCARDNWDGGFAYWGQGTLVTVSA
VL: DIVMSQSPSSLAVSVGEKVTMSCKSSQSLLYSRNQKNYLAWYQQKPGQSPKLLIYWASTRESGVPDRFTGSGSGTDFTLTISSVKAEDLAVYYCQQYYSYPHMFGGGTKLEIK
For B2, the binding entry in test [3] and in test [4] was “binds” each time.
